Measured values as given in PubChem BioAssay AID1347426 (Functional Genomics Laboratory (NCATS/FGL), 2020).
Among all 31,000 sequences or so, about 1,400 (4.5%) were called active.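 Rule for the calls: active = median seed-adjusted z-score above 1 or below -1; inactive = the rest.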 This is one part of the list.

Experiment: Novel Modifiers of Survival Motor Neuron (SMN) Protein: Gene Identification via Genome-wide siRNA Screen;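 note: luminescence tracks full-length SMN protein made from the SMN2 reporter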
Conditions: HEK293T SMN2-luciferase reporter, siRNA knockdown, 72 h; actives lie on both sides
Summary of the method: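 Genome-wide siRNA screen (10418 genes, 3 siRNAs each, 1 pmol per well) by reverse transfection in HEK293T cells stably carrying an SMN2-luciferase reporter; luminescence after 72 hours, normalized to negative-control siRNA, log10-transformed, MAD-scored.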

Sequence	median seed-adjusted z-score
GAGGUCAUCUGCAAUAGUATT against CHST2	inactive: 0
CAGUGACCCGGAUCCUCUATT against RHCG	inactive: 0.375
ACAUCAAUCCUGAAAUGCATT against TFEB	inactive: 0.34
CAAACCAUAUCUUACCGUUTT against PLCB1	inactive: 0.0735
GCAUUAUUGUUGGGCUAUUTT against MORF4L2	inactive: 0.389
GCAUCGAAGGAUUCAUACATT against ZNF354A	inactive: 0.401
GGGAGCACCUGAAUCCUAATT against MUS81	inactive: 0
CGGAAAGACAGGUCGAAAATT against ZCCHC4	inactive: -0.0614
CCAAGGCUGUCAUUUUAUATT against WRNIP1	inactive: 0.00972
GCUCAUCCACUAUAACCAUTT against CA10	inactive: 0.255
AAACCUUGCUUUAUAGGAATT against NPFFR2	inactive: 0.0554
GGUUCUCAGUAGUCGAUUUTT against CUL9	inactive: 0.399
GAAAGACUCUAAUCAAAGUTT against ZNF594	inactive: 0.491
CCACUUGUCUGUGAAUUCATT against MPN2	inactive: 0.108
CUGAUUUUCUCAAUAGUGATT against ZNHIT3	inactive: -0.311
UGACAACACUCGCAUGACATT against KRT9	inactive: 0.545
GCAAUCUUGUUGUACACCATT against ZNF432	inactive: -0.124
GCAUGACCAUAAGAUCCUATT against NUAK2	inactive: -0.0601
CCAGGAAACAUUGCCGUAATT against GPR111	inactive: 0
CGAGUACUGUCUCAAGGUATT against TTC9B	inactive: -0.272
CCAGCUUCGGACAACAGUATT against MTSS1	inactive: 0.175
GAUUCAGCGAUAUUGCAAATT against RAB23	inactive: 0.45

Sequence	median seed-adjusted z-score
CCAGCUCUUCUCUACCACATT against PAQR7	inactive: -0.0406
GCUUCAGAGUGUGAAGUCATT against TXN	inactive: -0.195
CUAUGGUACGCGAUCGUCATT against HERC2	inactive: 0.98
CAGUAGAGACAAACAUUUUTT against ZNF394	inactive: -0.462
CACGUAGAAUUAAGACGGATT against VPS4B	inactive: -0.0992
CAACCGGAAUGGGAAAGUUTT against TXNDC1	inactive: 0.458
ACAAAAUUGCUACAUCAAATT against ECHDC1	inactive: 0.554
AGAUGGUGUCCAUCAGUAATT against EMG1	inactive: -0.0627
GCACCAAAGCUUACCGUGATT against STX8	inactive: 0.475
GCACUUUGCUUAUCCCGGATT against AGK	inactive: -0.312
GAGGGAAAGCAAAAGAGUATT against HCCS	inactive: 0.00254
UCUCUUUACCGACAAUAUATT against DIABLO	inactive: 0.913
GGAGAACUGUCAAAGGUCATT against NDUFA8	inactive: -0.752
CGACUUCAUUGUAAAGAAATT against LIPF	inactive: 0.54
CGAUUACCCGAAUCCGUCATT against RYR3	inactive: 0
GGUCAUAUCUGUUUAUCCATT against UBE2W	inactive: -0.655
GGUAAUAGCUGAGCAUGCATT against ETFA	inactive: -0.0619
GGUGAUCCUAAAAACCGAATT against AKAP3	inactive: 0.0138
AGGACAAGCGGGACCUGAATT against MGAT3	inactive: -0.118
GCAACCUUCUCAUCGAGUATT against TGM2	inactive: 0.413
CUUUGUUAGUCCUAAAGAATT against IGF2BP3	inactive: -0.636
CGACCACUCAUCAAGCCCATT against GATA2	inactive: 0.623

25 entries from above, in CSV form:
Sequence,median seed-adjusted z-score
CCAGGAAACAUUGCCGUAATT against GPR111,inactive: 0
CGAGUACUGUCUCAAGGUATT against TTC9B,inactive: -0.272
CCAGCUUCGGACAACAGUATT against MTSS1,inactive: 0.175
GAUUCAGCGAUAUUGCAAATT against RAB23,inactive: 0.45
CCAGCUCUUCUCUACCACATT against PAQR7,inactive: -0.0406
GCUUCAGAGUGUGAAGUCATT against TXN,inactive: -0.195
CUAUGGUACGCGAUCGUCATT against HERC2,inactive: 0.98
CAGUAGAGACAAACAUUUUTT against ZNF394,inactive: -0.462
CACGUAGAAUUAAGACGGATT against VPS4B,inactive: -0.0992
CAACCGGAAUGGGAAAGUUTT against TXNDC1,inactive: 0.458
ACAAAAUUGCUACAUCAAATT against ECHDC1,inactive: 0.554
AGAUGGUGUCCAUCAGUAATT against EMG1,inactive: -0.0627
GCACCAAAGCUUACCGUGATT against STX8,inactive: 0.475
GCACUUUGCUUAUCCCGGATT against AGK,inactive: -0.312
GAGGGAAAGCAAAAGAGUATT against HCCS,inactive: 0.00254
UCUCUUUACCGACAAUAUATT against DIABLO,inactive: 0.913
GGAGAACUGUCAAAGGUCATT against NDUFA8,inactive: -0.752
CGACUUCAUUGUAAAGAAATT against LIPF,inactive: 0.54
CGAUUACCCGAAUCCGUCATT against RYR3,inactive: 0
GGUCAUAUCUGUUUAUCCATT against UBE2W,inactive: -0.655
GGUAAUAGCUGAGCAUGCATT against ETFA,inactive: -0.0619
GGUGAUCCUAAAAACCGAATT against AKAP3,inactive: 0.0138
AGGACAAGCGGGACCUGAATT against MGAT3,inactive: -0.118
GCAACCUUCUCAUCGAGUATT against TGM2,inactive: 0.413
CUUUGUUAGUCCUAAAGAATT against IGF2BP3,inactive: -0.636

(listing goes on)

Sequence	median seed-adjusted z-score
CAACGGUUGAAAAACGUAATT against ZNF285A	inactive: 0.148
CCGUUGCUCUAUCUUCGUATT against SETBP1	inactive: 0.0232
GCUAGACACCGGACCAAAATT against MMP28	inactive: 0.862
AGUGACAACCUUCGAGGUATT against PCDH11Y	inactive: 0.186
GCACUGCAAGGGAAAGAAATT against DNM1	inactive: 0.217
CACAUUAAAGUGUAAAGAATT against PIP3-E	inactive: 0.676
GAAUGUUCCCAAGCUCUCATT against PLA2G7	inactive: 0.292
AGGAGAAUCUGGAUCCGCATT against TGM6	inactive: 0.0811
CGCAUUCUCCAGUCGCACATT against KRT81	inactive: -0.0955
GAAUCUGGACAGUACCACUTT against CSRP1	inactive: -0.312
GGUUACUACCUGAUUCAGATT against GLRA1	inactive: 0
GACAAUCACUGAACGCCGATT against APOE	inactive: 0.0321
GUCUCUAAACCAAACCUGATT against ZNF506	inactive: -0.235
GGCUUAACCUGCUAGAAAATT against PAQR9	inactive: 0.116
CACUCUAAGCAUAACUAAATT against ABL1	inactive: -0.181
CCUGACAACCAGUACCUUATT against IFIT2	inactive: -0.0205
GGGAGACCUCGAUCGUGAATT against RASA4	active: -1.11
GGACGGUGGAGAACUCUUUTT against MAPKAPK2	inactive: -0.543
GCUUAGCUGUCUUUCGUUUTT against GGCX	inactive: -0.362
GGUGAACUACUACUAGAUATT against CAB39	inactive: -0.144
ACAUAUUCACGGCCUAUAATT against AJAP1	inactive: 0.488
GUAUAAUCCUCAGAGCAAATT against CXXC1	inactive: -0.841

Sequence	median seed-adjusted z-score
GCACUUACCAAGUUGGAUATT against ADSS	inactive: -0.272
GAGAUGGACUAAUAGGCAATT against COL4A6	inactive: 0.0681
GCCGCAAACCUAUACCCUUTT against SCRT2	inactive: 0.404
GCAUUAGAAUAAUUCGUGATT against SLTM	inactive: 0.547
GGUUCCAACAAAAGACUUUTT against PSMA3	inactive: -0.81
CCACCCUACUAUGCGCACATT against GJA3	inactive: 0.833
AGAAGAUAGUGGAUAAUCUTT against PPCS	inactive: 0
CAAGGGUACUGUUCUCCUATT against SLC4A1	inactive: -0.861
AGUUUAUGGAGAGAAGAGATT against FBL	inactive: -0.0592
AAGAGAAGAUCAAUAUUUATT against TRIM54	inactive: -0.219
GGCUUGCUGUAAUUACCCATT against ABCB1	inactive: -0.384
GGAGCUUUAUAACAACCUUTT against ZNF282	inactive: 0.274
GAGUCUUCUUGGUACCCAATT against NCAN	inactive: -0.391
GAGUUAAGUGAUAAGUAUATT against ZNF639	inactive: 0.182
GAGUGUCCGUGGUUAGGUATT against BACH1	inactive: -0.404
GGUAAACUCAAUGCACAGATT against ELAC1	inactive: 0.967
GAGCUGAAUGUUAUGUUUATT against RAB6A	inactive: 0.102
GCACCAUACAGGAAGAUUATT against MRCL3	inactive: -0.00909
CGAAUACCUAAAACGUAUATT against NAE1	inactive: -0.453
CACUGGUACGACUCGCUUATT against RHPN1	inactive: 0.161
GGAUGUCCAGAGGCACUAATT against POLA2	inactive: -0.114
CAAUGGUCCAAGUCUAACATT against EEF1E1	active: -1.45

Sequence	median seed-adjusted z-score
GGAAGAUGGUUAUUGACAUTT against PDE4B	inactive: 0.546
GGAGAUCUCAGACGAAUUATT against AGA	inactive: -0.0433
GAUAUAAAGUCAUGAAGAATT against USP30	inactive: -0.646
GCAGUACACUACCAACAGATT against ALAS1	active: -1.15
CACCAUGAAUCUUUCGAAATT against MAP7	inactive: -0.22
GACCUAUACUCAUUCUGCATT against ZBTB41	inactive: 0.173
CAACAUAUCUGCACAGGUATT against FLVCR2	inactive: -0.336
GGACGAAGAAAUUAGCAGATT against QKI	inactive: -0.206
GCUGUGACAUGGUCUACAATT against BSN	inactive: 0.116
CCAUCCUGGAAAUACCCUATT against SERPINA12	inactive: -0.382
CCAAAUCUCCUUAUACGAUTT against AFF3	inactive: -0.00277
GAAUUGGACUGGAUGCUAATT against DGKK	inactive: 0
GAAUCUUGCCCGUCUAUAATT against RSC1A1	inactive: 0.438
CAGCUAUCAGAAUAGGUAUTT against CREBBP	inactive: 0
GGCAGAACUGUUUAUGGAATT against ZNF280D	inactive: 0.374
CGUCCGUGAUUGAUGAUGATT against BAP1	inactive: -0.374
ACAAGAUCGUCUUCUUUAATT against MMP17	inactive: -0.653
GGCUCAUAUAUUCAACGUATT against USO1	inactive: 0.21
CGAUUAAGUUAUUACGGUUTT against TOP2B	inactive: 0.225
UCCUAUGAAUGUCCACAAUTT against ZNF443	inactive: 0.0544
